Reference: publication PMC10681709

Sequences of proteins named here, by UniProt entry; tags and fusion partners are left off. Residues count along the entry.
UniProt Q91XB0, 1-242: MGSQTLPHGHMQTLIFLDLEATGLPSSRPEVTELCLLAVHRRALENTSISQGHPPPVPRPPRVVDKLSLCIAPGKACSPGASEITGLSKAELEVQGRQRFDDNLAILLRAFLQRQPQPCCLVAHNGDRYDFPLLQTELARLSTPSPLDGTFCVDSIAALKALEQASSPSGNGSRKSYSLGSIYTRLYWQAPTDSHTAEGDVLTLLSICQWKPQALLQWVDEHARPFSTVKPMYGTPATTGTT

Biological target: mTREX1 truncated (nuclease domain) (Mus musculus) (UniProt Q91XB0)
Assay: fluorescence anisotropy
Settings: 20 mM EDTA, extrapolated; FA: 5 nM FAM nucleic acid, 120 mM NaCl, 20 mM Tris pH 7.0, 20 mM EDTA, room temperature, 30 min; recombinant protein; residues 1-242; protein details: His-tag; label: 5'-FAM on strand 1

ACUGGACAAAUACUCCGAGG / CCUCGGAGUAUUUGUCCAGU [dsRNA20]
Kd: > 65.5 µM
